These results are taken from PMC6584520.

Chains of the proteins cited; added tags and fusions are not shown.
UniProt Q03135: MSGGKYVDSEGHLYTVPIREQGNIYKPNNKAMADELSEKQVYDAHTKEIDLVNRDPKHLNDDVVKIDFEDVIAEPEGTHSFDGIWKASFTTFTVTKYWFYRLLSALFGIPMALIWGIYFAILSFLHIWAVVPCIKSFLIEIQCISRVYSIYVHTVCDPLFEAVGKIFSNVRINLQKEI
UniProt Q8WUM4: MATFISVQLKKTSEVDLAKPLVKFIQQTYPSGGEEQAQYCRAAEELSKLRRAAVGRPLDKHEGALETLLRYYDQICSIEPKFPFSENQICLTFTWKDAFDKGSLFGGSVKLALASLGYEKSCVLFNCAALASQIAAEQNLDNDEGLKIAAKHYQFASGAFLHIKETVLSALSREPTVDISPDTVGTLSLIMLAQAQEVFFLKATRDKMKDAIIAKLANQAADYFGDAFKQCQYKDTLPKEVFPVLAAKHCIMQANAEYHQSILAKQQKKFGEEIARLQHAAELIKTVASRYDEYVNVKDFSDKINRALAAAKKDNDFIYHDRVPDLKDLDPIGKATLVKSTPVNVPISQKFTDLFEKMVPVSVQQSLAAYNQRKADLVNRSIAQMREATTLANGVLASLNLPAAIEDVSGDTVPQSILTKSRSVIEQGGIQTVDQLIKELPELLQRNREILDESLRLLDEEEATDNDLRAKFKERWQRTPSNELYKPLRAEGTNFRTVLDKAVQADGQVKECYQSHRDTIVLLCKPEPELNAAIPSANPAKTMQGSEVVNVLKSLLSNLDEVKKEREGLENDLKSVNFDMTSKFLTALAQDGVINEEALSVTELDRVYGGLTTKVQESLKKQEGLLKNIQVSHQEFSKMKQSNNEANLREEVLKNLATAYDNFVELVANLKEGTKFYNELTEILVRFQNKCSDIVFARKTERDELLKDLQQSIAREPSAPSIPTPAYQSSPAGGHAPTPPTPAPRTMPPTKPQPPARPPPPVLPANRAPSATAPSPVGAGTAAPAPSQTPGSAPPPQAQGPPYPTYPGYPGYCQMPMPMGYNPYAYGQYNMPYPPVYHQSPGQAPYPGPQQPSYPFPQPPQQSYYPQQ

These are yes or no findings as the source states them, for the method shown. In cells and extracts the contact can be indirect. Some results given as binding are weak or reduced against the parent protein; the word gives no strength.

Test [1] deals with T1, Occludin (human (endogenous in human brain vascular pericytes)) (UniProt Q16625).
T1 sequence: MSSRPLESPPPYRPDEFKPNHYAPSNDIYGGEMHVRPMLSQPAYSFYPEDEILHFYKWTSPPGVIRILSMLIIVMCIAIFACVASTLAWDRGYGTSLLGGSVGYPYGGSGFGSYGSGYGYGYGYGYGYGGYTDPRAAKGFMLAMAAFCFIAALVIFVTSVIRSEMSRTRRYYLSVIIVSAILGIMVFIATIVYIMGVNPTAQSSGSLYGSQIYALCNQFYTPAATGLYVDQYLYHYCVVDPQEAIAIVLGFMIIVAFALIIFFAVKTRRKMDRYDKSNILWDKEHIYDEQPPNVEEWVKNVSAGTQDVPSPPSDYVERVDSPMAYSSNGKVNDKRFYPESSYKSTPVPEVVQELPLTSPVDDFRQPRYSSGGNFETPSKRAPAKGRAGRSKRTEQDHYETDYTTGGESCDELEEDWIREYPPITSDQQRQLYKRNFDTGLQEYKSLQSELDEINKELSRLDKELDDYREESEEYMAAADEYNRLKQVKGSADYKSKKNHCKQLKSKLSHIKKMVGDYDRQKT
The test is described as follows: co-IP; co-immunoprecipitation in human brain vascular pericytes; bait not told.

The target in test [2] is caveolin-1 (human (endogenous in human brain vascular pericytes)) (UniProt Q03135). The description is as above.

For Alix (from UniProt Q8WUM4 1-868), the binding entry in test [1] and in test [2] was “binds” in each case.

B1: Occludin (protein, UniProt Q16625 1-522)
chain: MSSRPLESPPPYRPDEFKPNHYAPSNDIYGGEMHVRPMLSQPAYSFYPEDEILHFYKWTSPPGVIRILSMLIIVMCIAIFACVASTLAWDRGYGTSLLGGSVGYPYGGSGFGSYGSGYGYGYGYGYGYGGYTDPRAAKGFMLAMAAFCFIAALVIFVTSVIRSEMSRTRRYYLSVIIVSAILGIMVFIATIVYIMGVNPTAQSSGSLYGSQIYALCNQFYTPAATGLYVDQYLYHYCVVDPQEAIAIVLGFMIIVAFALIIFFAVKTRRKMDRYDKSNILWDKEHIYDEQPPNVEEWVKNVSAGTQDVPSPPSDYVERVDSPMAYSSNGKVNDKRFYPESSYKSTPVPEVVQELPLTSPVDDFRQPRYSSGGNFETPSKRAPAKGRAGRSKRTEQDHYETDYTTGGESCDELEEDWIREYPPITSDQQRQLYKRNFDTGLQEYKSLQSELDEINKELSRLDKELDDYREESEEYMAAADEYNRLKQVKGSADYKSKKNHCKQLKSKLSHIKKMVGDYDRQKT
On to B1, for which, in test [2], the binding result is on record as “binds”.
